The supplement of paper PMC12067093, “Discovery and optimisation of a covalent ligand for TRIM25 and its application to targeted protein ubiquitination” (Chemical Science, 2025)
Some of the results follow.

Sequences of proteins named here, by UniProt entry; tags and fusion partners are left off. A change or cut given only in a name is not applied to a line headed by its entry.
UniProt Q7LBC6: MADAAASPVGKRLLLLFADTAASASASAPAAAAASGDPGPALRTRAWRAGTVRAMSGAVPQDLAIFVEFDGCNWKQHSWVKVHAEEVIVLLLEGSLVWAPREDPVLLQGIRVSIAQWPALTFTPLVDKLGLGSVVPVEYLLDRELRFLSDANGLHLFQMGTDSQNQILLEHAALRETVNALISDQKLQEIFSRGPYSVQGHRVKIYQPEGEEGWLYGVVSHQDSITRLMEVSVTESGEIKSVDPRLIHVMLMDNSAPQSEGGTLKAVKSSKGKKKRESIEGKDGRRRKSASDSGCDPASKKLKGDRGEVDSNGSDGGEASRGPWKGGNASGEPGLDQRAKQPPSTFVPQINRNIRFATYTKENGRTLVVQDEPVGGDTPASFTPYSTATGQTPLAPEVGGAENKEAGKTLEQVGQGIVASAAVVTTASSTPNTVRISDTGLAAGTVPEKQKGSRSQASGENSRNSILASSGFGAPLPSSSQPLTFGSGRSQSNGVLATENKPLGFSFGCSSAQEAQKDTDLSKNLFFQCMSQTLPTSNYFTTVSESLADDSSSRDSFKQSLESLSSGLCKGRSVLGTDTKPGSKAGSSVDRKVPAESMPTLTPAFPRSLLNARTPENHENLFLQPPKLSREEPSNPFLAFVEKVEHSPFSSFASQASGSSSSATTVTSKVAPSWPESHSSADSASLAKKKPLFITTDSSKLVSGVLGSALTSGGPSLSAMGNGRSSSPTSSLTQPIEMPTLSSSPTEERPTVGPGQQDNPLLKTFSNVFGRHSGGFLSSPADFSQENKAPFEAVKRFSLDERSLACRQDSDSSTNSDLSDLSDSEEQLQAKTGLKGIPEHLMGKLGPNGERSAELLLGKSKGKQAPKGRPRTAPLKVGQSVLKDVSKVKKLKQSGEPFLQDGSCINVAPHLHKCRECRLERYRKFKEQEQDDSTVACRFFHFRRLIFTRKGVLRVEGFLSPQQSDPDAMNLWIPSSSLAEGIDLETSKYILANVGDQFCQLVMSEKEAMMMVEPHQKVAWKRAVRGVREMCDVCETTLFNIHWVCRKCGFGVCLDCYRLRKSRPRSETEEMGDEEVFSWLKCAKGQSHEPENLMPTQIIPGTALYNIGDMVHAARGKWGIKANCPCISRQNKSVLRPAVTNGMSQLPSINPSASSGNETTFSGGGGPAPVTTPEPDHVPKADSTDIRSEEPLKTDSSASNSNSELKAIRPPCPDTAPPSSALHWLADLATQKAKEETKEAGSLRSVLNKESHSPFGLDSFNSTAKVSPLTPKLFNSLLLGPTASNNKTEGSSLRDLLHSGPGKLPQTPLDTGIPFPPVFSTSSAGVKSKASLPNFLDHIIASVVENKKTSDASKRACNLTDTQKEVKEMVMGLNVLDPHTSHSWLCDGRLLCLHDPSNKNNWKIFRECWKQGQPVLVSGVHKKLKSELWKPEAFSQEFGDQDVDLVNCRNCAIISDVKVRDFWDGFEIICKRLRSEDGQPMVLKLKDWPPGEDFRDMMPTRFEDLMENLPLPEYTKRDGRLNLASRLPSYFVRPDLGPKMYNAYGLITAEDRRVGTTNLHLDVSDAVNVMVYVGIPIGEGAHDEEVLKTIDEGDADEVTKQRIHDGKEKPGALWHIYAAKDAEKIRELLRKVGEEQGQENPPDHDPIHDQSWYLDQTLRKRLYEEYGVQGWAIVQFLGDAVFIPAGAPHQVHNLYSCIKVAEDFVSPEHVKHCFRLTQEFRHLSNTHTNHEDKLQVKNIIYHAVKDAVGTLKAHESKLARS
UniProt Q7Z4H8: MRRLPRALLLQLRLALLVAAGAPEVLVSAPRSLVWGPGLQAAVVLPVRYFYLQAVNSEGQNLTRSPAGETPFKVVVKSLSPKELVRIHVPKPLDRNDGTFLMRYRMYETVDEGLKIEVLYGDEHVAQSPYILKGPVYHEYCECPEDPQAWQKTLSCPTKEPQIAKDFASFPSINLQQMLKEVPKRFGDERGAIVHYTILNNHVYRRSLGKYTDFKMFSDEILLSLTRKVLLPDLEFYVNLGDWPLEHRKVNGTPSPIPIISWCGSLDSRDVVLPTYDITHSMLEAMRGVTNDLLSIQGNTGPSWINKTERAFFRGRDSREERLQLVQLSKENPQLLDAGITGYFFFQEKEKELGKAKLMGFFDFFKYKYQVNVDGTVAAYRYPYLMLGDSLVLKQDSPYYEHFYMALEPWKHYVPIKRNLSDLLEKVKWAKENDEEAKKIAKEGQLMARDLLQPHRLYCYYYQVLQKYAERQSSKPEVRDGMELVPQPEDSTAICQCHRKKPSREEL
UniProt Q9BVV6: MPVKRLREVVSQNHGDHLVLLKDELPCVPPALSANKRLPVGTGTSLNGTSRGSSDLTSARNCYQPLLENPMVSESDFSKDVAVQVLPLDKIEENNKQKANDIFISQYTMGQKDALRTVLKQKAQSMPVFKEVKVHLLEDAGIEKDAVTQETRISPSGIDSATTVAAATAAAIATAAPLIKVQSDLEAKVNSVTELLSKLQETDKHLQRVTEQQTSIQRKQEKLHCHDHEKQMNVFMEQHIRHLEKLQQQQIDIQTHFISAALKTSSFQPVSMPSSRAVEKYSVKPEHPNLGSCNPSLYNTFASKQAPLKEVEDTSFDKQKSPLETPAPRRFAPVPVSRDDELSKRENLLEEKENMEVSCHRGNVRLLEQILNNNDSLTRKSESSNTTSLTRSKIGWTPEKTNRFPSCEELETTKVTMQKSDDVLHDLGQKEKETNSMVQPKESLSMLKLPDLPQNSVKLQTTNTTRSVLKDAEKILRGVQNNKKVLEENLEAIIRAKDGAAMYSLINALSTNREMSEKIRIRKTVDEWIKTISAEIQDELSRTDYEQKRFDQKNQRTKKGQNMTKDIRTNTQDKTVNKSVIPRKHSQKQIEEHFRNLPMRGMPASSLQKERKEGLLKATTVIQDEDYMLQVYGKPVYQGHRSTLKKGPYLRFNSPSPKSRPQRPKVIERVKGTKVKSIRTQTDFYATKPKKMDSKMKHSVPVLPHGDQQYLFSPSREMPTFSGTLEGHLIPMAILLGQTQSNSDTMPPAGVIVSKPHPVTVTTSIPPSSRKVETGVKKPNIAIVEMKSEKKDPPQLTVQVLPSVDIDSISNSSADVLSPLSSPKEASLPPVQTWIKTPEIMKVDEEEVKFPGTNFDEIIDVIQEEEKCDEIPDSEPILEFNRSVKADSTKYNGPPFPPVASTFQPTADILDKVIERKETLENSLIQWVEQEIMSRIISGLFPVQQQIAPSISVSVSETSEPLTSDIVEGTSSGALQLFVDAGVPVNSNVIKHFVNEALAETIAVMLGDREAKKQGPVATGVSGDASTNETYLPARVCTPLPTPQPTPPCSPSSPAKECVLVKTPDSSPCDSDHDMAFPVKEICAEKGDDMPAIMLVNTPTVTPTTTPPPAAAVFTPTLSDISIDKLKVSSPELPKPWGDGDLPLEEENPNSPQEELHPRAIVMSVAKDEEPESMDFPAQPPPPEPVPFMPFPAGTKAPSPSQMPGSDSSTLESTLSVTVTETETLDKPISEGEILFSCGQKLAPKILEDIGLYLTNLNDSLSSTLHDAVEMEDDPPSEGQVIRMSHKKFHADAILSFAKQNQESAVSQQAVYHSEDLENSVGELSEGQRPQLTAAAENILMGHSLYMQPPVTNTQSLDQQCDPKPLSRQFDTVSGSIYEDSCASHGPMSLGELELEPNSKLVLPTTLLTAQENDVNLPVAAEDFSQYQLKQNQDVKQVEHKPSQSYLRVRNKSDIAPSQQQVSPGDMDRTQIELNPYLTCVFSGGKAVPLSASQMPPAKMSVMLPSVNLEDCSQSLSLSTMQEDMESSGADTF
UniProt Q14573, whole entry, looked up: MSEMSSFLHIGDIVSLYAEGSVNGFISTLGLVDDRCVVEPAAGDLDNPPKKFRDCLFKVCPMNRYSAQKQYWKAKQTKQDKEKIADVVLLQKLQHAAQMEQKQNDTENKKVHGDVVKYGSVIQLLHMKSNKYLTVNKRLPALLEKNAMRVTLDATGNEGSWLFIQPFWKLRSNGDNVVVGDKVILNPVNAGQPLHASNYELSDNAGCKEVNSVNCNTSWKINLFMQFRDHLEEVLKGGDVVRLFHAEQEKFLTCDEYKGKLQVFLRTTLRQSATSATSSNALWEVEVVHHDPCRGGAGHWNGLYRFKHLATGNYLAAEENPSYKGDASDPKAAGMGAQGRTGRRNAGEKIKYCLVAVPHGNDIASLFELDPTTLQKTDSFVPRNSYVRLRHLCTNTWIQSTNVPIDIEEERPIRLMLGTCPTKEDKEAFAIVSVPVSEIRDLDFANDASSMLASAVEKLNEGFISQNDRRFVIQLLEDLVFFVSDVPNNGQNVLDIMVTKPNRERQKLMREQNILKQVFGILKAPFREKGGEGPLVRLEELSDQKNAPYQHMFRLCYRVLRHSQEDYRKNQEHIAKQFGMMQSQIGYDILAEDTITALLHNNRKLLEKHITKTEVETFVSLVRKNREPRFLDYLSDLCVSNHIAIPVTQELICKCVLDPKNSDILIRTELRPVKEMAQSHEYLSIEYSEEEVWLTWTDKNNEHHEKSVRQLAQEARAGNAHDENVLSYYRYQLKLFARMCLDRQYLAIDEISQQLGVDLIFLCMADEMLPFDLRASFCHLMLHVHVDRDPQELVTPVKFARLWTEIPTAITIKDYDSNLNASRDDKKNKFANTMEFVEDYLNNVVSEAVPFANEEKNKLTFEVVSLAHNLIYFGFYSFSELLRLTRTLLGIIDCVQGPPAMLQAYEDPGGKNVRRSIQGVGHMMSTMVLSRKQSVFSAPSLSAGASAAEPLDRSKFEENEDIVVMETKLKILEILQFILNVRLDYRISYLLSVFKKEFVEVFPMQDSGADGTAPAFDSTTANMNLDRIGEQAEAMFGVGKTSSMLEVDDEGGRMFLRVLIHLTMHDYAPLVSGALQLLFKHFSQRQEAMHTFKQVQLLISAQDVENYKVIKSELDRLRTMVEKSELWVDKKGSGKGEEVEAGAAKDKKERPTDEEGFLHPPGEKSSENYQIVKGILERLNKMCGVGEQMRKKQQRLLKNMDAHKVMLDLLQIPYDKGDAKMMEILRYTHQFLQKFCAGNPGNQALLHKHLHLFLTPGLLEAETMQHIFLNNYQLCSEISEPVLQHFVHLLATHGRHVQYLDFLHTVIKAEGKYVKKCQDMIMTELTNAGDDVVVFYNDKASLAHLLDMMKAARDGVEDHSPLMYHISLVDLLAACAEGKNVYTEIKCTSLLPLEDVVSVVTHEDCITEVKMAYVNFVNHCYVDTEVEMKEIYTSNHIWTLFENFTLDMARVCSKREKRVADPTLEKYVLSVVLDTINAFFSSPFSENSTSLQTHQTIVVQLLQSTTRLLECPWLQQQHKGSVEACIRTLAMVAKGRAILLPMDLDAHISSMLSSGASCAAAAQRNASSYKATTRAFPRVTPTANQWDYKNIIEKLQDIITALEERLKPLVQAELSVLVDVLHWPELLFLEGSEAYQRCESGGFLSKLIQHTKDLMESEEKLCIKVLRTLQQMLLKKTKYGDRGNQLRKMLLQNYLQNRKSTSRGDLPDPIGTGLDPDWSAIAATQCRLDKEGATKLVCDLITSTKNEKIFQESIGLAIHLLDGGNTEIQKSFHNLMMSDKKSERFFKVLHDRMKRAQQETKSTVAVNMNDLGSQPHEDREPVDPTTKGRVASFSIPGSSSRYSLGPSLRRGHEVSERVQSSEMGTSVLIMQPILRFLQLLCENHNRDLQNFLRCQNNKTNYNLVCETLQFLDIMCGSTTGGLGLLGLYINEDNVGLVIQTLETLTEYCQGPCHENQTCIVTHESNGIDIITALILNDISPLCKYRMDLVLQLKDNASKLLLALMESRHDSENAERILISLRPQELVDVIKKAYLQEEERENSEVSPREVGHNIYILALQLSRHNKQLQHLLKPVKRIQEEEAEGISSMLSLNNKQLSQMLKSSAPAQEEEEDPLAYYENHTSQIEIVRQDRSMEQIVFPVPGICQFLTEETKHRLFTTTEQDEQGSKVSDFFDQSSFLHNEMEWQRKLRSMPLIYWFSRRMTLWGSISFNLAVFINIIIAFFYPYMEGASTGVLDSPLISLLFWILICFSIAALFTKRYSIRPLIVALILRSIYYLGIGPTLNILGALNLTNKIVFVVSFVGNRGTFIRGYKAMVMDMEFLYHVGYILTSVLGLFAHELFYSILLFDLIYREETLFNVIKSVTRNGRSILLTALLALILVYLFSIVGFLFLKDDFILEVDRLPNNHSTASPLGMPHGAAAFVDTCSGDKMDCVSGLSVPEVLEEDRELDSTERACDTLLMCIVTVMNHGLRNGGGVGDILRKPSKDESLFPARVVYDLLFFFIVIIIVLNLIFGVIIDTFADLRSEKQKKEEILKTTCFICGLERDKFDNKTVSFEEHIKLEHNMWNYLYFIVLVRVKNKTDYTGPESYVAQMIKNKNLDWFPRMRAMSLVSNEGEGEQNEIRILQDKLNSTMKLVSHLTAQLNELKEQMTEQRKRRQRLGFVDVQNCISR

Compound: Cc1cc(ccc1-c1ccccc1)C(=O)N1CCCN(CC1)C(=O)CCl [compound 10]
Experiment: probe-labelled cysteine peptide fold change vs DMSO (competition) (log2 fold change); higher = less target engagement (more negative = stronger competition)
Details: THP-1, incubation time: 4 h
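Note: competitive profiling in live THP-1 cells: cysteine peptides tagged with an iodoacetamide desthiobiotin (IA-DTB) probe, intensity after compound treatment relative to DMSO-treated cells.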

Target | probe-labelled cysteine peptide fold change (10 µM) | probe-labelled cysteine peptide fold change (50 µM)
KBTBD11_O94819_384_PSDQVFCYNPATDSWSAVRPLR (UniProt O94819) | 0.185 | 0.261
ITPR1_Q14643_1255_LAHEFLQNFCAGNQQNQALLHK (UniProt Q14643) | 0.149 | 0.339
KDM2A_Q9Y2K7_463_CLVDKLESLPLHKK (UniProt Q9Y2K7) | -0.116 | -0.84
JADE1_Q6IE81_258+261_CLLCPK (UniProt Q6IE81) | 0.21 | -0.261
ITSN2_Q9NZM3_1414_ENSDRLEWIQAHVQCEGLAEQLIFNSLTNCLGPR (UniProt Q9NZM3) | 0.173 | 0.325
KCNAB2_Q13303_248_IGVGAMTWSPLACGIVSGK (UniProt Q13303) | -0.111 | -0.222
KIF20A_O95235_87_QEDQGCVR (UniProt O95235) | 0.102 | 0.315
KDM1A_O60341_491_DLTALCK (UniProt O60341) | 0.0807 | 0.00467
KDM3B_Q7LBC6_904_QSGEPFLQDGSCINVAPHLHK (UniProt Q7LBC6) | 0.0265 | -0.103
ITPRID2_P28290_887_TLSTHSVPNISGATCSAFASPFGCPYSHR (UniProt P28290) | -0.187 | -0.948
KCTD5_Q9NXV2_25_GGIGAGLGGGLCR (UniProt Q9NXV2) | 0.2 | -0.225
ITSN2_Q9NZM3_530_QCDLEIMEIK (UniProt Q9NZM3) | 0.0528 | 0.101
JAK2_O60674_961_LLQYTSQICK (UniProt O60674) | -0.135 | 0.0113
KIDINS220_Q9ULH0_747_CEVELMAR (UniProt Q9ULH0) | 0.0595 | -0.107
KCTD3_Q9Y597_704_GATGECNISER (UniProt Q9Y597) | -0.23 | -0.298
ITPR1_Q14643_768_CMSDENLPYDLR (UniProt Q14643) | -0.0658 | 0.226
KDM1A_O60341_623_CDAVLCTLPLGVLK (UniProt O60341) | 0.19 | 0.403
KDELC2_Q7Z4H8_497_DGMELVPQPEDSTAICQCHR (UniProt Q7Z4H8) | -0.0963 | -0.306
KIF1BP_Q96EK5_371_AVQFGTGELCDAISAVEEK (UniProt Q96EK5) | -0.257 | -0.052

Target | probe-labelled cysteine peptide fold change (10 µM) | probe-labelled cysteine peptide fold change (50 µM)
JMJD6_Q6NYC1_101_CGEDNDGYSVK (UniProt Q6NYC1) | -0.128 | 0.139
KIAA0930_Q6ICG6_269_VSTGDTSPCGTEEDSSPASPMHER (UniProt Q6ICG6) | -0.534 | -0.842
KDM3B_Q7LBC6_1470_VRDFWDGFEIICK (UniProt Q7LBC6) | 0.00404 | -0.492
IWS1_Q96ST2_749_ALRPGDPGFCAR (UniProt Q96ST2) | -0.224 | -0.474
KDM2B_Q8NHM5_991_RPPGICERPHR (UniProt Q8NHM5) | -0.279 | -0.172
KIAA0930_Q6ICG6_119_LDYMVTCAVCTR (UniProt Q6ICG6) | 0.134 | 0.138
ITPR1_Q14643_530_LLQAPFTDCGDGPMLR (UniProt Q14643) | -0.345 | -0.0978
KEAP1_Q14145_226_QEEFFNLSHCQLVTLISR (UniProt Q14145) | 0.249 | 0.138
KIAA0586_Q9BVV6_293_YSVKPEHPNLGSCNPSLYNTFASK (UniProt Q9BVV6) | 0.0249 | 0.122
KIF15_Q9NS87_1062_DMLCEDLAHATEQLNMLTEASK (UniProt Q9NS87) | 0.064 | 0.149
IVD_P26440_355_ACDEGHCTAK (UniProt P26440) | 0.0649 | 0.00421
KIF14_Q15058_508_IHDLLVCK (UniProt Q15058) | -0.0541 | 0.0888
JMJD1C_Q15652_1721+1722_QTGESFLQDDSCCEIGPNLQK (UniProt Q15652) | 0.165 | -0.302
KDM3B_Q7LBC6_1357_ACNLTDTQK (UniProt Q7LBC6) | -0.781 | -0.521
KDM4C_Q9H3R0_14_MEVAEVESPLNPSCK (UniProt Q9H3R0) | 0.236 | 0.0354
KDM3B_Q7LBC6_1034_EMCDVCETTLFNIHWVCR (UniProt Q7LBC6) | 0.0856 | -0.139
KHSRP_Q92945_296_VQQACEMVMDILR (UniProt Q92945) | -0.058 | 0.0234
ITPR3_Q14573_2455_ACDTLLMCIVTVMNHGLR (UniProt Q14573) | 0.317 | 0.38
KANK1_Q14678_907_ITGNYLGYTCK (UniProt Q14678) | 0.164 | -0.317

2 entries from above, reformatted.
KIAA0586_Q9BVV6_293_YSVKPEHPNLGSCNPSLYNTFASK (UniProt Q9BVV6)
  probe-labelled cysteine peptide fold change (10 µM): 0.0249
  probe-labelled cysteine peptide fold change (50 µM): 0.122
ITPR3_Q14573_2455_ACDTLLMCIVTVMNHGLR (UniProt Q14573)
  probe-labelled cysteine peptide fold change (10 µM): 0.317
  probe-labelled cysteine peptide fold change (50 µM): 0.38
